According to paper doi:10.1101/2025.11.01.685996:
No constants are given. Whether binding was seen depends on the method and setting. In cells and extracts the contact can be indirect. Some results given as binding are weak or reduced against the parent protein; the word gives no strength.

By UniProt entry, the sequences of proteins in these tests, tags left out. Where a name states a change or a piece, a line headed by the entry shows the natural chain unless it says otherwise. Chains listed by the source or under a name are the forms on record and can include a tag or linker.
UniProt P21730: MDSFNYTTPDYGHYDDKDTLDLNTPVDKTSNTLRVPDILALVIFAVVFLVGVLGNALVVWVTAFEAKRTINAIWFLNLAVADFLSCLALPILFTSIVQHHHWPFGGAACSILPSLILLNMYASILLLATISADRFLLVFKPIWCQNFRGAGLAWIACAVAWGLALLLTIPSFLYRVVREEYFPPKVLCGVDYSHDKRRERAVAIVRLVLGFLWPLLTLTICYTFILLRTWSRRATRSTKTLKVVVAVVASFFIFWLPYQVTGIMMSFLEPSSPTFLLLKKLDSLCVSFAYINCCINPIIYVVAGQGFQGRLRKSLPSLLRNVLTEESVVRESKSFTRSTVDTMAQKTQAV
UniProt Q9P296: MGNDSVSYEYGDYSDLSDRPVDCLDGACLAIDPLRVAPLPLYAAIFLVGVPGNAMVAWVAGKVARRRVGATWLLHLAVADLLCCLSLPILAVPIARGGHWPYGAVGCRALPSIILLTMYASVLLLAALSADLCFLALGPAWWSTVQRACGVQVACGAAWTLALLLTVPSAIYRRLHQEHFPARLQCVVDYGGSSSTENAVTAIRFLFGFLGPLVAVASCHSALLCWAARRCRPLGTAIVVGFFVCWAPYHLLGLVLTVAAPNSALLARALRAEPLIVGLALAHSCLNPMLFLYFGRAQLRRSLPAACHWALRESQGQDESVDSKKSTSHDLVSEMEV
human C5aR2 mutant Arg(5.42) to alanine (Q9P296, form named): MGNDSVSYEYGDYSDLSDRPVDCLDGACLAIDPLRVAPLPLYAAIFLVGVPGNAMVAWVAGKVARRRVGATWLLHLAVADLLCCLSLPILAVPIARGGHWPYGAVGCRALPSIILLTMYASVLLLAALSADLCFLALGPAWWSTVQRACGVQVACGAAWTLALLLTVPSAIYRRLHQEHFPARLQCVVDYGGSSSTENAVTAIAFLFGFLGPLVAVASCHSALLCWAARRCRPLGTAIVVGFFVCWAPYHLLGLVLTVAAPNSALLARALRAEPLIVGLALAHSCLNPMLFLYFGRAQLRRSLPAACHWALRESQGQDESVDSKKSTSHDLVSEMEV
UniProt P49407: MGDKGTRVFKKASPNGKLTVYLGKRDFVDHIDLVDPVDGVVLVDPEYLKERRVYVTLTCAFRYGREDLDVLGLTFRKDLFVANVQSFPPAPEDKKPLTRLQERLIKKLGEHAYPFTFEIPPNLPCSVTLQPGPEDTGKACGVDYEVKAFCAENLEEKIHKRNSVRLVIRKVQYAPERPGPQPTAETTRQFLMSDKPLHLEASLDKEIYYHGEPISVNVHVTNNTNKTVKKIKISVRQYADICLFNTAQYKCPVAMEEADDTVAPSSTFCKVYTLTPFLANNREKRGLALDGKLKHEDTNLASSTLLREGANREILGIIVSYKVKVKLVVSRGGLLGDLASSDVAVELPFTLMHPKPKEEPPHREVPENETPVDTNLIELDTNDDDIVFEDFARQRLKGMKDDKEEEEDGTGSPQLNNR
UniProt P32121: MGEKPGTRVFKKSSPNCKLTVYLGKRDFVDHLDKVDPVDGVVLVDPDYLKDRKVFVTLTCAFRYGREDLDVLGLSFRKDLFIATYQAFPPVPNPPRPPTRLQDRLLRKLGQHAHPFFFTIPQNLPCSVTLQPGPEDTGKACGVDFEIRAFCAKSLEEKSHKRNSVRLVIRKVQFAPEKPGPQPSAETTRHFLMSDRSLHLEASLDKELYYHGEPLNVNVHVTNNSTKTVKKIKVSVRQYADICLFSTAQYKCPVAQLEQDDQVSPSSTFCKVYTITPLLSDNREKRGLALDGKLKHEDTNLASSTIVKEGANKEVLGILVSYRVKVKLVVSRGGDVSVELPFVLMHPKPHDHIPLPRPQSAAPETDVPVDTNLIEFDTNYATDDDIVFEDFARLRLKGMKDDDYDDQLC

Tests used:
[1] = target: T1, mouse C5aR1 with C-terminal SmBiT (mC5aR1-SmBiT) (mouse) (UniProt P30993); assay: split reporter
T1 sequence: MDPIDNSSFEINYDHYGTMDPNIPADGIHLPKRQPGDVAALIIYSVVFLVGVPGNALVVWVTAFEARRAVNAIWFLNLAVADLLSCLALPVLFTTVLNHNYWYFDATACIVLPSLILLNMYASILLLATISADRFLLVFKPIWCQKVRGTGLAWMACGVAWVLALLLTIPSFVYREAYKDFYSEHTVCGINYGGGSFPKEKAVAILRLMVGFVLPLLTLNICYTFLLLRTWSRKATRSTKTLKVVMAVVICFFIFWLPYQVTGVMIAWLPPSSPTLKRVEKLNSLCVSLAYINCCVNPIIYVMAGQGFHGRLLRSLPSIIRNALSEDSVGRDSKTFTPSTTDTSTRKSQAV

[2] = target: human C5aR1 with C-terminal SmBiT (hC5aR1-SmBiT) (human) (UniProt P21730); assay: split reporter
[3] = target: human C5aR2 with C-terminal SmBiT (hC5aR2-SmBiT) (human) (UniProt Q9P296); assay: split reporter
[4] = target: T2, human C3aR with C-terminal SmBiT (hC3aR) (human) (UniProt Q16581); assay: split reporter
T2 sequence: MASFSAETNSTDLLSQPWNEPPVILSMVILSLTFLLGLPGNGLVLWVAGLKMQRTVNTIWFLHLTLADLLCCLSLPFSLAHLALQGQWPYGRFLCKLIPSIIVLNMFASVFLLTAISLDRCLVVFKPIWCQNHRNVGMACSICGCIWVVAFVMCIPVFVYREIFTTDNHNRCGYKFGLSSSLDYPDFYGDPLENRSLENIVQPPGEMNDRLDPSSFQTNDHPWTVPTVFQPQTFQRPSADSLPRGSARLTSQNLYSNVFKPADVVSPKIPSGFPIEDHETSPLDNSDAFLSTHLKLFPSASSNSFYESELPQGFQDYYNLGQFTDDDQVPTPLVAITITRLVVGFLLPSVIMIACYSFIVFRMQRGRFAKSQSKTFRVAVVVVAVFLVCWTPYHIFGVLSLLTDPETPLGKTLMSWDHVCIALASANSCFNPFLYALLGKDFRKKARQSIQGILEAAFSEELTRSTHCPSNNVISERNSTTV

[5] = target: human C5aR2 mutant Arg(5.42) to alanine (human) (UniProt Q9P296); assay: split reporter
[6] = target: T3, mouse C5aR2 with C-terminal SmBiT (mC5aR2-SmBiT) (mouse) (UniProt Q8BW93); assay: split reporter
T3 sequence: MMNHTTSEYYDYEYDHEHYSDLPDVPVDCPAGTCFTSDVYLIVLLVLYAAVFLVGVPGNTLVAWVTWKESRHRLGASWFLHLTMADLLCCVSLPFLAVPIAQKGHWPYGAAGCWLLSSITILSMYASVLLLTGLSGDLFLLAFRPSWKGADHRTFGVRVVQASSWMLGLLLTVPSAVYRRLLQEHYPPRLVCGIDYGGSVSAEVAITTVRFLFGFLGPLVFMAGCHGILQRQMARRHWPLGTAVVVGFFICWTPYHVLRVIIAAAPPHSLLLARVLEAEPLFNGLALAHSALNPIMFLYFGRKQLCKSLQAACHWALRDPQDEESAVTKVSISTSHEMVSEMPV

[7] = target: human C5aR1-Rluc8 (human) (UniProt P21730); assay: FRET or BRET
[8] = target: C5aR2-Venus (UniProt Q9P296); assay: FRET or BRET

Row | binding [1] | binding [2] | binding [3] | binding [4] | binding [5] | binding [6] | binding [7] | Substance | binding [8]
1 | binds | binds | binds | binds | binds | binds | – | β-arrestin 1 with N-terminal LgBiT (LgBiT-βarr1) (from UniProt P49407 1-418) | –
2 | – | – | – | – | – | – | binds | β-arrestin 2-Venus (from UniProt P32121 1-409) | –
3 | – | – | – | – | – | – | – | β-arrestin 2-Rluc (from UniProt P32121 1-409) | binds
4 | binds | binds | binds | – | – | binds | – | β-arrestin 2 with N-terminal LgBiT (LgBiT-βarr2) (from UniProt P32121 1-409) | –
